# Results from PubChem BioAssay AID504834 (National Center for Advancing Translational Sciences (NCATS), 2011).
# The whole screen tested about 320,000 compounds, of which about 22,000 (6.9%) were called active. Inconclusive means that the source gave no clear call. Such entries were picked first, then a sample of the others. Calls follow the shape of the dose curve; as a rule, active = well fitted inhibition curve with a large enough effect; inconclusive = small, poorly fitted or top-dose-only effect, or another doubt; inactive = no such curve, though single readings can be large or run the other way. Potencies of inconclusive entries are doubtful fits and often do not repeat.
# Assay: Primary qHTS for delayed death inhibitors of the malarial parasite plastid, 96 hour incubation
# Conditions: P. falciparum luciferase reporter growth; series mostly up to 28.7 µM; activity change, negative = inhibition: at the top concentration
# Procedure, shortened: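 Infected RBCs, 2% Hct / 0.05% parasitemia final; luciferase-reporter P. falciparum; cpd 96 h, 37 C, 5% CO2; luciferase detection reagent; luminescence.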
# % is scaled to controls: 0 for no effect and ±100 for the full control effect; potency is read from the fitted curve at half-maximal effect.
SMILES,Potency,"activity change, negative = inhibition"
NC(=O)C1CCN(C2=C(NS(=O)(=O)c3ccc(Br)cc3)C(=O)c3ccccc3C2=O)CC1,"inconclusive: 10.4 µM [inhibitor, single point]",–
COC(=O)c1ccc(/C=C/c2c(-c3ccsc3)oc3ccc(N4CCOCC4)cc23)cc1,active: 13.1 µM,–
Clc1cccc(-c2nc(NCC3CCCO3)c3ccccc3n2)c1 (stereo not drawn),–,inactive: 37.3% [at 5.75 µM]
COC(=O)N1C(=O)[C@@](Cc2ccccc2)(c2ccccc2)N1C(=O)OC,"inconclusive: 18.5 µM [inhibitor, single point]",–
O=C(CCCN1C(=O)/C(=C/c2ccccc2Cl)SC1=S)N1CCOCC1,"inconclusive: 18.5 µM [inhibitor, single point]",–
O=C(N/N=C/c1c[nH]c2ccccc12)c1ccc([N+](=O)[O-])cc1Cl,–,inactive: 20.6%
CCOc1cc(/C=N/n2c(C)nc3sc(C)c(C)c3c2=O)ccc1O,"inconclusive: 0.0047 µM [inhibitor, full curve, poor fit]",–
Cc1ccc(-c2noc(CCC(=O)N3CCN(c4cccc(C(F)(F)F)c4)CC3)n2)cc1,"inconclusive: 13.1 µM [inhibitor, single point]",–
COc1ccc(N=C2SC(CC(=O)Nc3ccccc3)C(=O)N2Cc2ccco2)cc1 (stereo not drawn),"inconclusive: 18.5 µM [inhibitor, single point]",–
O=c1sc(/C=N/Nc2ccccc2)c(Cl)n1Cc1ccccc1,"inconclusive: 7.38 µM [inhibitor, single point]",–
CC1=C(C(=O)OCC(C)C)C(c2cccs2)NC(=S)N1 (stereo not drawn),"inconclusive: 10.4 µM [inhibitor, single point]",–
CCOc1ccc(/C(C)=N/NC(=O)C(OC)c2ccccc2)cc1 (stereo not drawn),"inconclusive: 5.86 µM [inhibitor, partial curve, poor fit]",–
CCOc1ccc(C(C(=O)NC2CCCC2)N(Cc2ccccc2)C(=O)c2nsc(Cl)c2Cl)cc1 (stereo not drawn),"inconclusive: 11.7 µM [inhibitor, single point]",–
N#C/C(=C\c1ccc(C#N)cc1)C(=O)N1CCCC1,–,inactive: -4.79%
C/C(CC(=O)Nc1ccccn1)=N\NC(=O)C(=O)Nc1ccccc1C,active: 1.85 µM,–
Cc1ccccc1C(=O)NC(CC(C)C)C(=O)OCC(=O)c1c(N)n(C)c(=O)n(C)c1=O (stereo not drawn),"inconclusive: 2.62 µM [inhibitor, full curve, poor fit]",–
COc1ccc(-c2cc(C(=O)Nc3ccc(Cl)cc3Cl)c3ccccc3n2)cc1OC,–,inactive: 1.3%
COc1cc2[nH]c(=S)nc(NCc3ccc(C)cc3)c2cc1OC,active: 13.1 µM,–
COc1ccccc1C(=O)O/N=C1/CCCc2c1ccc(OC)c2[N+](=O)[O-],–,inactive: 45.9%
Cn1c(C2CCCCC2)nc2cc(N)ccc21,"inconclusive: 18.5 µM [inhibitor, single point]",–
N[C@@H](Cc1ccccc1)C(=O)N1CCOCC1,–,inactive: 79.6%
Cc1cccnc1Nc1ncnc(N)c1[N+](=O)[O-],"inconclusive: 0.465 µM [inhibitor, partial curve, poor fit]",–
COc1cc2c(cc1OC)CN(CC(=O)Nc1ccccc1SC)CC2,"inconclusive: 9.28 µM [inhibitor, single point]",–
COc1ccc(NC(=O)NC2CCCCCCC2)cc1OC,"inconclusive: 18.5 µM [inhibitor, single point]",–
CCN(CC)S(=O)(=O)c1ccc(N2CCOCC2)c(NC(=O)CC23CC4CC(CC(Br)(C4)C2)C3)c1,active: 10.4 µM,–

# A run of entries from the list above:
SMILES,Potency,"activity change, negative = inhibition"
COC(=O)N1C(=O)[C@@](Cc2ccccc2)(c2ccccc2)N1C(=O)OC,"inconclusive: 18.5 µM [inhibitor, single point]",–
O=C(CCCN1C(=O)/C(=C/c2ccccc2Cl)SC1=S)N1CCOCC1,"inconclusive: 18.5 µM [inhibitor, single point]",–
O=C(N/N=C/c1c[nH]c2ccccc12)c1ccc([N+](=O)[O-])cc1Cl,–,inactive: 20.6%
CCOc1cc(/C=N/n2c(C)nc3sc(C)c(C)c3c2=O)ccc1O,"inconclusive: 0.0047 µM [inhibitor, full curve, poor fit]",–
Cc1ccc(-c2noc(CCC(=O)N3CCN(c4cccc(C(F)(F)F)c4)CC3)n2)cc1,"inconclusive: 13.1 µM [inhibitor, single point]",–
COc1ccc(N=C2SC(CC(=O)Nc3ccccc3)C(=O)N2Cc2ccco2)cc1 (stereo not drawn),"inconclusive: 18.5 µM [inhibitor, single point]",–
O=c1sc(/C=N/Nc2ccccc2)c(Cl)n1Cc1ccccc1,"inconclusive: 7.38 µM [inhibitor, single point]",–
CC1=C(C(=O)OCC(C)C)C(c2cccs2)NC(=S)N1 (stereo not drawn),"inconclusive: 10.4 µM [inhibitor, single point]",–
CCOc1ccc(/C(C)=N/NC(=O)C(OC)c2ccccc2)cc1 (stereo not drawn),"inconclusive: 5.86 µM [inhibitor, partial curve, poor fit]",–
CCOc1ccc(C(C(=O)NC2CCCC2)N(Cc2ccccc2)C(=O)c2nsc(Cl)c2Cl)cc1 (stereo not drawn),"inconclusive: 11.7 µM [inhibitor, single point]",–
N#C/C(=C\c1ccc(C#N)cc1)C(=O)N1CCCC1,–,inactive: -4.79%
C/C(CC(=O)Nc1ccccn1)=N\NC(=O)C(=O)Nc1ccccc1C,active: 1.85 µM,–
Cc1ccccc1C(=O)NC(CC(C)C)C(=O)OCC(=O)c1c(N)n(C)c(=O)n(C)c1=O (stereo not drawn),"inconclusive: 2.62 µM [inhibitor, full curve, poor fit]",–
COc1ccc(-c2cc(C(=O)Nc3ccc(Cl)cc3Cl)c3ccccc3n2)cc1OC,–,inactive: 1.3%
COc1cc2[nH]c(=S)nc(NCc3ccc(C)cc3)c2cc1OC,active: 13.1 µM,–
COc1ccccc1C(=O)O/N=C1/CCCc2c1ccc(OC)c2[N+](=O)[O-],–,inactive: 45.9%
Cn1c(C2CCCCC2)nc2cc(N)ccc21,"inconclusive: 18.5 µM [inhibitor, single point]",–
N[C@@H](Cc1ccccc1)C(=O)N1CCOCC1,–,inactive: 79.6%
Cc1cccnc1Nc1ncnc(N)c1[N+](=O)[O-],"inconclusive: 0.465 µM [inhibitor, partial curve, poor fit]",–
COc1cc2c(cc1OC)CN(CC(=O)Nc1ccccc1SC)CC2,"inconclusive: 9.28 µM [inhibitor, single point]",–
COc1ccc(NC(=O)NC2CCCCCCC2)cc1OC,"inconclusive: 18.5 µM [inhibitor, single point]",–
CCN(CC)S(=O)(=O)c1ccc(N2CCOCC2)c(NC(=O)CC23CC4CC(CC(Br)(C4)C2)C3)c1,active: 10.4 µM,–

# The list goes on.

SMILES,Potency,"activity change, negative = inhibition"
c1ccc2nc(OCCN3CC3)ccc2c1,"inconclusive: 16.5 µM [inhibitor, single point]",–
COc1nc(-c2ccccc2)cc(-c2ccccc2)n1,"inconclusive: 18.5 µM [inhibitor, partial curve, poor fit]",–
COc1ccccc1C(=O)Nc1nc(-c2ccc(S(=O)(=O)N3CCOCC3)cc2)cs1,"inconclusive: 16.5 µM [inhibitor, partial curve, poor fit]",–
COc1cc2c(cc1OC)CN(Cc1cc(=O)oc3cc(C)c(Cl)cc13)CC2,"inconclusive: 4.15 µM [inhibitor, partial curve]",–
CC1CC(=O)N(c2ccc(NCCc3ccc(O)cc3)c([N+](=O)[O-])c2)C1=O (stereo not drawn),–,inactive: -7.22%
COc1cc([N+](=O)[O-])ccc1NC(=O)CN1CCc2cc(OC)c(OC)cc2C1,"inconclusive: 9.28 µM [inhibitor, partial curve, poor fit]",–
COc1ccc(NC(=O)N2CCOCC2)cc1,"inconclusive: 18.5 µM [inhibitor, single point]",–
CCOC(=O)Cc1csc(NC(=O)c2ccc3ncsc3c2)n1,–,inactive: 93%
COc1ccc(CCNC(=O)CSc2nnc(Cn3c(=O)sc4ccccc43)n2C)cc1OC,"inconclusive: 0.0033 µM [inhibitor, full curve, poor fit]",–
Cc1ccc(OCc2nnc(SCC(=O)c3ccccc3)n2-c2ccccc2)cc1,–,inactive: -60.2%
COCC1CCN(C(=O)c2cc(COc3cc(C)c(Cl)c(C)c3)on2)C1 (stereo not drawn),"inconclusive: 18.5 µM [inhibitor, single point]",–
Cc1ccc(C(=O)CC2(O)C(=O)N(C)c3ccc(Br)cc32)c(C)c1 (stereo not drawn),"inconclusive: 10.4 µM [inhibitor, single point]",–
CCn1c(SCC(=O)Nc2ccc(F)cc2)nc2ccccc2c1=O,"inconclusive: 18.5 µM [inhibitor, single point]",–
CC(O)CO (stereo not drawn),"inconclusive: 11.7 µM [inhibitor, single point]",–
Cc1ccc2c(c1)nnn2C1CCN(CC(=O)c2ccc(Cl)cc2)CC1,–,inactive: 0.694%
Cc1ccc(C)c(CSCc2nc3ccccc3[nH]2)c1,"inconclusive: 7.38 µM [inhibitor, partial curve, poor fit]",–
COc1ccc(Cc2nc3ccc(C(=O)NCCc4cccc(C)n4)cc3o2)cc1,–,inactive: 0%
Cc1cc(C)cc(N(C(C)C(=O)N2CCCCC2)S(C)(=O)=O)c1 (stereo not drawn),"inconclusive: 14.7 µM [inhibitor, partial curve, poor fit]",–
COC(=O)c1ccc(NC(=S)Nc2ccc(O)cc2)cc1,"inconclusive: 13.1 µM [inhibitor, single point]",–
Cn1c(=O)c2c(ncn2Cc2ccccc2)n(C)c1=O,"inconclusive: 8.28 µM [inhibitor, partial curve, poor fit]",–
COc1cccc(-c2ccc3nnc(SCC(=O)Nc4ccc(NC(C)=O)cc4)n3n2)c1,–,inactive: 13.6%
Cc1ccccc1CNc1ncnc2c1ncn2C1OC(CO)C(O)C1O (stereo not drawn),–,inactive: -12.8%
COc1ccc(-c2cn(Cc3ccc(C(=O)NCc4ccc(C)cc4)cc3)c(C(C)N)n2)cc1 (stereo not drawn),"inconclusive: 16.5 µM [inhibitor, single point]",–
Cc1[nH]n(-c2ccccc2)c(=O)c1N=Nc1cccc([N+](=O)[O-])c1,–,inactive: 67.5%
Cc1cc(NC(=O)CCN2C(=O)c3ccccc3C2=O)no1,"inconclusive: 11.7 µM [inhibitor, partial curve, poor fit]",–

SMILES,Potency,"activity change, negative = inhibition"
CC(c1ccccc1)[n+]1ccccc1 (stereo not drawn),active: 11.7 µM,–
COc1cc(C(C)=O)ccc1COc1ccc(C(=O)OC(C)C(=O)NC(N)=O)cc1OC (stereo not drawn),–,inactive: 21.2%
COc1ccc(C)cc1NC(=O)NCc1ccco1,"inconclusive: 13.1 µM [inhibitor, partial curve, poor fit]",–
CCOC(=O)N1CCN(S(=O)(=O)c2ccc(C(=O)Nc3sc4c(c3C(=O)OC)CCN(C)C4)cc2)CC1,"inconclusive: 1.31 µM [inhibitor, partial curve]",–
COC(=O)C1(C)NC(c2ccc(O)cc2)C2C(=O)N(c3ccc4c(c3)OCCO4)C(=O)C21 (stereo not drawn),–,inactive: 54.5%
CCOC(=O)c1sc(N)c(C#N)c1COC(=O)C1=COCCO1,–,inactive: 0%
CCOc1ccc(Nc2nc3cc(S(=O)(=O)CC)ccc3o2)cc1,active: 13.1 µM,–
CC1CCCN(CCCOc2ccc([N+](=O)[O-])cc2)C1 (stereo not drawn),–,inactive: 46.6%
Cc1c(C(=O)Nc2ccc(F)cc2)c2ccccn2c1CCc1ccncc1,"inconclusive: 11.7 µM [inhibitor, single point]",–
Cc1cc(OCCCCNC(C)C)cc(C(C)C)c1,active: 6.57 µM,–
COC(=O)COc1ccc(-c2ccccc2)cc1C=O,"inconclusive: 9.28 µM [inhibitor, single point]",–
C/C(=N\NC(=O)Cc1c(C)[nH][nH]c1=O)c1ccc2ccccc2c1,"inconclusive: 10.4 µM [inhibitor, single point]",–
O=C(CC1C(=O)NCCN1C(=O)Nc1ccc(F)cc1F)Nc1ccc(F)cc1 (stereo not drawn),–,inactive: 18%
COc1cc(/C=N/NC(=O)c2cc(C3CC3)[nH]n2)ccc1O,–,inactive: 10.3%
C=CCc1cc(Cl)ccc1OCCOCCN(C)C,–,inactive: -5.35%
O=S(=O)(O)c1ccc(O)cc1,–,inactive: 5.71%
Cc1cccn2cc(CNS(=O)(=O)c3ccc4ccccc4c3)nc12,–,inactive: 37.8%
CCO[C@H]1OC(C(=O)N2CCN(Cc3ccccc3)CC2)=C[C@@H](C2CCCCC2)[C@@H]1CCCO,active: 1.65 µM,–
Cc1cc(C(=O)Nc2nnc(C(F)(F)F)s2)cs1,–,inactive: 59.4%
O=C(/C=C/c1ccc(OC(F)F)cc1)OCC(=O)N1CCC(c2ccccc2)=N1,"inconclusive: 11.7 µM [inhibitor, single point]",–
Cc1cc(/C=C2\C(=O)NC(=O)N(C)C2=O)c(C)n1-c1ccc2c(c1)OCO2,"inconclusive: 0.147 µM [inhibitor, full curve, poor fit]",–
Cc1cc(=O)oc2c(C)c(OCC(=O)N3CCN(c4ccc(F)cc4)CC3)ccc12,–,inactive: -0.747%
Cc1ccc(Cl)cc1NC(=O)COC(=O)CC1CCCCC1,"inconclusive: 18.5 µM [inhibitor, single point]",–
